This experiment concerns the target FLAG-tagged chromodomain of Corto (Drosophila melanogaster) (UniProt P41046). Description: co-IP; S2 cells transiently co-transfected, harvested after 48 h, no fixation; anti-FLAG antibody on Protein G beads (anti-HA as mock); Western blot with anti-Myc and anti-FLAG. Background: A western blot detects proteins with antibodies after separation by electrophoresis.

By UniProt entry, the sequences of proteins in these tests, tags left out. Where a name states a change or a piece, a line headed by the entry shows the natural chain unless it says otherwise.
UniProt P41046: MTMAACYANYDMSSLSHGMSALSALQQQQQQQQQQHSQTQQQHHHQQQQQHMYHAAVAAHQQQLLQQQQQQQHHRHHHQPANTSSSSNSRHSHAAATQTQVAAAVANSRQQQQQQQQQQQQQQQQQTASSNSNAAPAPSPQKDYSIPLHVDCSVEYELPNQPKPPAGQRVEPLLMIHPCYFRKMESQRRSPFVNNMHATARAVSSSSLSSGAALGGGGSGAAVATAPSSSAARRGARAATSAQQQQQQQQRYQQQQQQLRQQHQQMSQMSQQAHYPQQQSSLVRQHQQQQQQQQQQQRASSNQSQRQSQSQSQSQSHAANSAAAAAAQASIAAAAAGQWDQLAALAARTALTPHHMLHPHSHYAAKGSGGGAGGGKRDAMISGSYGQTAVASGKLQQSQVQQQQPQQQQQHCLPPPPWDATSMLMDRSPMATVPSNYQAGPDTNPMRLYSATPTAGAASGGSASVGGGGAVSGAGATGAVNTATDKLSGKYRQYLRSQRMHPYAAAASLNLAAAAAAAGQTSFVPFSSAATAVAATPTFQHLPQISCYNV
UniProt Q9W1B9: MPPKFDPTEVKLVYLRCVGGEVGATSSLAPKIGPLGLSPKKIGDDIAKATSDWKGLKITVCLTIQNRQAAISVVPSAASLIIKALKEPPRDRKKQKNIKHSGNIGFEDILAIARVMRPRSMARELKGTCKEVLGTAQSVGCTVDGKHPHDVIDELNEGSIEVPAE

No constants are given. Whether binding was seen depends on the method and setting. Binding seen in cells or lysates may run through a third protein. Binding can be weak; no strength is given.

As for uL11-Myc (from UniProt Q9W1B9 1-165), the binding result is “binds”.

These data come from paper PMC9387862.
